From publication PMC2794028
Results are given in words; binding and its absence hold for the method and conditions named. Tags and fused reporters may be left off the sequences shown.

Protein sequences, listed by entry. Tags and fused reporters are not part of them.
UniProt P11974: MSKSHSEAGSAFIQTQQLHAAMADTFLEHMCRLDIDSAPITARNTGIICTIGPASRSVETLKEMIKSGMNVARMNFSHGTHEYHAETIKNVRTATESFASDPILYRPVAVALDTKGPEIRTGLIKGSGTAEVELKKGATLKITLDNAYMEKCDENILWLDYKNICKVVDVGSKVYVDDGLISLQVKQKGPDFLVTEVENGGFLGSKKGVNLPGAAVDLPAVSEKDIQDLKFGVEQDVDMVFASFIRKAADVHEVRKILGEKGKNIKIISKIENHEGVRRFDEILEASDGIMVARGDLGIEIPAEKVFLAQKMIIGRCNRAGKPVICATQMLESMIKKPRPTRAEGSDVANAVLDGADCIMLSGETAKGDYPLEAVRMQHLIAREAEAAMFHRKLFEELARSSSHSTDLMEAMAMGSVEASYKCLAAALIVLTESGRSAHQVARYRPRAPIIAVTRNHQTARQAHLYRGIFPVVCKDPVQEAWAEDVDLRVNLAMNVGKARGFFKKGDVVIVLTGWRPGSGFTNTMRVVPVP

Molecular target: rabbit muscle pyruvate kinase (rabbit) (UniProt P11974)
Assay: ELISA; wells coated with 100 μl of 100 nM plasminogen (or rabbit muscle pyruvate kinase), over-coated with skimmed milk; 100 μl of 6 × His-tagged r-Pfen in different concentrations, 4 hours; detected with mouse anti r-Pfen serum (1:2000); OD at 405 nm; both purified

B1: recombinant 6 × His-tagged P. falciparum enolase (enzyme, UniProt Q8IJN7 1-446)
chain: MAHVITRINAREILDSRGNPTVEVDLETNLGIFRAAVPSGASTGIYEALELRDNDKSRYLGKGVQKAIKNINEIIAPKLIGMNCTEQKKIDNLMVEELDGSKNEWGWSKSKLGANAILAISMAVCRAGAAANKVSLYKYLAQLAGKKSDQMVLPVPCLNVINGGSHAGNKLSFQEFMIVPVGAPSFKEALRYGAEVYHTLKSEIKKKYGIDATNVGDEGGFAPNILNANEALDLLVTAIKSAGYEGKVKIAMDVAASEFYNSENKTYDLDFKTPNNDKSLVKTGAQLVDLYIDLVKKYPIVSIEDPFDQDDWENYAKLTAAIGKDVQIVGDDLLVTNPTRITKALEKNACNALLLKVNQIGSITEAIEACLLSQKNNWGVMVSHRSGETEDVFIADLVVALRTGQIKTGAPCRSERNAKYNQLLRIEESLGNNAVFAGEKFRLQLN
In the case of B1, the binding is reported as “no binding”.
